These are yes or no findings as the source states them, for the method shown. Binding seen in cells or lysates may run through a third protein. Binding calls can cover weak binding; strength is not graded here. Tags and fused reporters may be left off the sequences shown.
Tests used:
His-tagged Mfn1 = target: T1, His-tagged Mfn1 (UniProt Q8R4Z9); assay: pull-down
T1 sequence: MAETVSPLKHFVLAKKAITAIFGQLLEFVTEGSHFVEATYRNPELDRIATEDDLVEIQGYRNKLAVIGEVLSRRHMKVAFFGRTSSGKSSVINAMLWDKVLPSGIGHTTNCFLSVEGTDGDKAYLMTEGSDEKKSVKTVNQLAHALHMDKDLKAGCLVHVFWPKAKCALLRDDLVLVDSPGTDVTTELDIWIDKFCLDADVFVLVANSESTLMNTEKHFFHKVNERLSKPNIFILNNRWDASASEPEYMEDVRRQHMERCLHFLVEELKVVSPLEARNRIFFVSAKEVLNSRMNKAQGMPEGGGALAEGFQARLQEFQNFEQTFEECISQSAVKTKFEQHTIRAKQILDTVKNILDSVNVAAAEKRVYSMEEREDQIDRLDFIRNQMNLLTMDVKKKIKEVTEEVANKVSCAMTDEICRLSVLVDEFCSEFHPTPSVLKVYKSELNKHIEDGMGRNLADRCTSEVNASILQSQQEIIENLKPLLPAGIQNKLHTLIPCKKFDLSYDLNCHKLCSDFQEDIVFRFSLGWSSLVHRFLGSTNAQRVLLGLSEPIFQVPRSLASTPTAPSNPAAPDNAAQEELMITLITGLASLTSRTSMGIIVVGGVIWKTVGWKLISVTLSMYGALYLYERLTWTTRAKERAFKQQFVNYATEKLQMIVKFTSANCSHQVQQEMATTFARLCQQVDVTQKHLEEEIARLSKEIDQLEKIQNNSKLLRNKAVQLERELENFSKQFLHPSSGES

The chains behind the UniProt entries cited, without tags or fusion partners. Where a name states a change or a piece, a line headed by the entry shows the natural chain unless it says otherwise.
UniProt Q9ERZ8: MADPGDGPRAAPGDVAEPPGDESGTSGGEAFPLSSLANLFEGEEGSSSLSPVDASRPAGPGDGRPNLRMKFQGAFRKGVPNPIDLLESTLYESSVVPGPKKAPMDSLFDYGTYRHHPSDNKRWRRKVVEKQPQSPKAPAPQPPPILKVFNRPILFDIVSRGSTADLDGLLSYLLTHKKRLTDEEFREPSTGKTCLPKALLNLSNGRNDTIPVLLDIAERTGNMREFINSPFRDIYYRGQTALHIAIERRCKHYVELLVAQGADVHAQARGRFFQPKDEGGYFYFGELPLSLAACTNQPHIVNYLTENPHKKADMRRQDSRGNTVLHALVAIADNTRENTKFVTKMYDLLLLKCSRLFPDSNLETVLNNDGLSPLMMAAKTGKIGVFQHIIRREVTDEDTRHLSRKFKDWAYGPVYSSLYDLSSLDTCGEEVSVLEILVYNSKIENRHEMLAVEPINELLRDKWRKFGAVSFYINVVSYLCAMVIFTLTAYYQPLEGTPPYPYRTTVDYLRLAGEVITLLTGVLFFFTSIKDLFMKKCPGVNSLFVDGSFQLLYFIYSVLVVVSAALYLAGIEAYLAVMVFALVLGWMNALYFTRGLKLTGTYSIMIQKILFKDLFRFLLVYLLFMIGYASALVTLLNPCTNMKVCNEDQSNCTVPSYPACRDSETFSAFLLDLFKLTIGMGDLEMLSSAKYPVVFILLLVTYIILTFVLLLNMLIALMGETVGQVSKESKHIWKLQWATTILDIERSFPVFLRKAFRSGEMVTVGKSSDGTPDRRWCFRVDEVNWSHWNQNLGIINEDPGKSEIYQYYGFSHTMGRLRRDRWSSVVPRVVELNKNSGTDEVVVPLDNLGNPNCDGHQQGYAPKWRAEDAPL

His-tagged Mfn2 = target: T2, His-tagged Mfn2 (UniProt Q8R500); assay: pull-down
T2 sequence: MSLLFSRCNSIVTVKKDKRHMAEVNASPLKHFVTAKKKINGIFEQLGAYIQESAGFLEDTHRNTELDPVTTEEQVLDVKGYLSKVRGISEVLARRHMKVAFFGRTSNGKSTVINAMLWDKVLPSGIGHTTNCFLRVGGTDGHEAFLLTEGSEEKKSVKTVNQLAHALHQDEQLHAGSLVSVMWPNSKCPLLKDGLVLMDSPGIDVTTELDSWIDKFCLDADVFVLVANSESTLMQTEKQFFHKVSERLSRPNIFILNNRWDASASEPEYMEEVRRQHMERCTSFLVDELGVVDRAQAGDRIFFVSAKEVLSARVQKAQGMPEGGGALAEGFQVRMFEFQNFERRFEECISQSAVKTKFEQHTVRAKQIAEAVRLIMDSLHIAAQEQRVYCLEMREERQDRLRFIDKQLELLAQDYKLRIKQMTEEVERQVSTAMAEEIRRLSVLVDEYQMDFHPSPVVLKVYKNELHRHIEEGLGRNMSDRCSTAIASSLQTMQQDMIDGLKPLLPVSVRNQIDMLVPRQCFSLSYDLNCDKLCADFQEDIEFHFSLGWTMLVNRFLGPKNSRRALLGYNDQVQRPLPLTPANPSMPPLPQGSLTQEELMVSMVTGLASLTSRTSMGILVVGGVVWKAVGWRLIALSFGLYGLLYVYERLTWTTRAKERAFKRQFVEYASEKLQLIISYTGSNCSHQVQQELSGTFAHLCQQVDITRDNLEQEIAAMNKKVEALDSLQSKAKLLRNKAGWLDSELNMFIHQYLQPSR

Substance: MBP-TRPV4-Ct (C-terminal cytoplasmic domain of TRPV4 fused with MBP) (from UniProt Q9ERZ8) (domain or fragment)
- binding (His-tagged Mfn1): binds
- binding (His-tagged Mfn2): binds

— doi:10.1101/330993
